1 molecule from patent US20240360186A1, “Treatment Of Integrin-Related Disorders With Stapled Peptides” (Institute For Cancer Research d/b/a The Research Institute …, priority 2021, published 2024) can be followed below.

By UniProt entry, the sequences of proteins in these tests, tags left out. Residues count along the entry.
Talin head domain (residues 1-430) (P26039, residues 1-430): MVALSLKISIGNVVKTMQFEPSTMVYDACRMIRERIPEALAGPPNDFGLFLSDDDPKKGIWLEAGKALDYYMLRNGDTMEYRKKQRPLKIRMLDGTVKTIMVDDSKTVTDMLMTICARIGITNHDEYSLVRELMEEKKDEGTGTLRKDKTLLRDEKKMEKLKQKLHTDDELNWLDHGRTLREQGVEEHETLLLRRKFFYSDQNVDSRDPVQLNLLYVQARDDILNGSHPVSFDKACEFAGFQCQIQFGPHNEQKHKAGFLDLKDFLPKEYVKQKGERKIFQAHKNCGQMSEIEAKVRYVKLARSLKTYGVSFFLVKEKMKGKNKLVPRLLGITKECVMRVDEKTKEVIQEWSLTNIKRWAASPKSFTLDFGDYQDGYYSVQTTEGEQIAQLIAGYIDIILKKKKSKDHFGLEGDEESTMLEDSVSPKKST
Talin rod R7R8 domains (P26039, residues 1357-1653): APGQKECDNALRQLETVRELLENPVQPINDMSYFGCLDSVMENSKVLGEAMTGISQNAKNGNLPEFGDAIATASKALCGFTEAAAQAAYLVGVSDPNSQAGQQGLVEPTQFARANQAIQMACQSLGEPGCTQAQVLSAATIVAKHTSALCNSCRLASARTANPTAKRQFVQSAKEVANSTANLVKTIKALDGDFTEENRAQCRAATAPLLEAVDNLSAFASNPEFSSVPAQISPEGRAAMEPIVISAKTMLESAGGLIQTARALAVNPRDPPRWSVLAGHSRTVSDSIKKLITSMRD

These are yes or no findings as the source states them, for the method shown. Some binding calls cover weakened binding; strength is not graded here.

One assay addresses T1, Talin rod R7R8 domains (UniProt P26039 1357-1653, limits assumed).
T1 construct: domain: R7R8; also called talin R7R8; talin rod double-domain R7R8
The assay is described as follows: fluorescence polarization; fluorophore-labelled peptide titrated with talin R7R8. As for the experimental part:
To assess the binding affinities of S-TBS with talin, the Kd of TBS and S-TBS peptides with talin rod R7R8 and talin head (residues 1-430) were measured using fluorophore-labeled peptides and recombinantly expressed, purified talin proteins by FP assays. […] This gain of affinity may be attributed to the C8 staple as it stabilizes the helical structure of TBS, and the enhanced hydrophobic interaction between S-TBS and talin rod. The enhanced binding of S-TBS to talin further validates the design strategy of using stapled peptides as a potent competitive inhibitor.
Fluorescent Polarization: Mixtures were prepared of purified talin proteins at a series concentration (R7R8: 0.2 μM to 20 μM; THD/b3-THD: 5 μM to 100 μM), or buffer only, with 20 nM FITC-labeled S-TBS (New England Peptide) in a buffer containing 20 mM HEPES, pH 7.5, 100 mM NaCl, and 2 mM DTT. After five minutes of incubation, 20 μl of the reaction mix was added to individual wells of a 384-well assay plate (Corning) and then measured fluorescence polarization at room temperature using a plate reader. A […] as emission polarization filters. FP signals were normalized against buffer-only background and then fit to a single-site (saturating) binding model using SigmaPlot (Systat Software).
(Fluorescence polarisation rises when a labelled molecule tumbles more slowly, as on binding a larger partner.)

In assay [1] the target is Talin head domain (residues 1-430) (UniProt P26039). The assay can be described thus: fluorescence polarization; fluorophore-labelled peptide titrated with talin head (residues 1-430).

Turning to NEDIDQMFSTLLGEMDLLTQS (fluorophore label (5' 6-FAM, fluorescein) in the FP and cell assays) [TBS peptide (unstapled talin-binding site peptide of RIAM)], the binding result (with Talin rod R7R8 domains; in assay [1]) was “binds” each time.
